Test results: PMC11659164, “Inceptor binds to and directs insulin towards lysosomal degradation in β cells” (Nature Metabolism, 2024)
These are yes or no findings as the source states them, for the method shown. In cells and extracts the contact can be indirect. Some entries that bind do so weakly or less than the wild type. Sequences can lack the tags named with a protein.

By UniProt entry, the sequences of proteins in these tests, tags left out. Where a name states a change or a piece, a line headed by the entry shows the natural chain unless it says otherwise.
UniProt P01308: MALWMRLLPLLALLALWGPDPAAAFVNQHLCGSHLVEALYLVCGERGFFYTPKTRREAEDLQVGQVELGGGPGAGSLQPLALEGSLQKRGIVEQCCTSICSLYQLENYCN

Biological target: T1, inceptor–HaloTag fusion protein (FRET experiments, INS-1E cells) (human) (UniProt Q6UXG2)
T1 sequence (chain, HaloTag ligand tetramethylrhodamine (TMR) on the HaloTag): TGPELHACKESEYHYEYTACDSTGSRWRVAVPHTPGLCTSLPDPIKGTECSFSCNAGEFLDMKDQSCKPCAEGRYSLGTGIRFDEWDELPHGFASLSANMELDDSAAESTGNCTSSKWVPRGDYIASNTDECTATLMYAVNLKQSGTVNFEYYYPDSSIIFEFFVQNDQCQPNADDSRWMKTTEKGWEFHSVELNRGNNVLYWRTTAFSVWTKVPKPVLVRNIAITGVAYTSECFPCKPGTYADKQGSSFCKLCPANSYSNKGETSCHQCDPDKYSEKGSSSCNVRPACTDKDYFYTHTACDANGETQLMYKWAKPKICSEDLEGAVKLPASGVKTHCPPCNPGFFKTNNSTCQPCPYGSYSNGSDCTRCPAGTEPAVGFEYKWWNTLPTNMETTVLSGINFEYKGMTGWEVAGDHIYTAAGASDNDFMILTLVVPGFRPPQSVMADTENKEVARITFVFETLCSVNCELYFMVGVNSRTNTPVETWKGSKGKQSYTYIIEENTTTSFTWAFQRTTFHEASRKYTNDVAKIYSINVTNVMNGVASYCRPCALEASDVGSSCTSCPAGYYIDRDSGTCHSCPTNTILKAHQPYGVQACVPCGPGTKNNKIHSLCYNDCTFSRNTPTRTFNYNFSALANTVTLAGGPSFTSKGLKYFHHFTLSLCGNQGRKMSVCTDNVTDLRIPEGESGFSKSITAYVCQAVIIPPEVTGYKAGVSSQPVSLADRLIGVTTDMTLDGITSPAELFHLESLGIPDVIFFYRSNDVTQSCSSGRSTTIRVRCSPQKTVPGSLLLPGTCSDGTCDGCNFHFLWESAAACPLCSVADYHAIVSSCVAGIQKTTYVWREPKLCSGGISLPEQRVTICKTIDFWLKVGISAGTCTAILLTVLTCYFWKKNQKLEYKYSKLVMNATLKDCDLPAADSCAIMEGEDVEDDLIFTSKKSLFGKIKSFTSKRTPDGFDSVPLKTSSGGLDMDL
Assay: FRET or BRET; live INS-1E cells overexpressing inceptor–HaloTag labelled with TMR; 100 nmol/l INS-630 and 0, 10, 100 and 1,000 nmol/l proinsulin in the medium for 40 min; corrected FRET efficiency by confocal imaging; only the binder purified

binding: binds
Substance: insulin–bodipy 630/650 (from UniProt P01308 25-54; P01308 90-110) (ligand)
